Earlier results, collected in US20160095850A1, “METHODS AND COMPOSITIONS FOR TREATMENT OF HIV INFECTION” (COOPER HUMAN SYSTEMS LLC, priority 2013, published 2016).
For at least one compound, name, drawing or mass did not settle the structure.

Test system: latent HIV
Conditions: in vitro T-cell model of HIV latency; read-out: EC50 of HIV induction

For `Cc1[nH]c2ccccc2c1CCNCc1ccc(/C=C/C(=O)NO)cc1` [panobinostat], the EC50 is listed as 10 nM.
